PubChem BioAssay AID1224830 – NIAID – 2016
In all, the deposit lists about 18,000 reagents; below is an unselected part. Over the whole deposit, about 2,900 (16%) are marked active. 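Calls are made per well; low scores hint the gene aids the LPS response, high scores that it dampens it.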 Repeated entries: four replicate wells of each siRNA pool. Reagent sequences are not shown.

Assay: 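Regulators of TLR4 signalling towards TNF-alpha in macrophage-like cells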 (primary screen)
Cells: human THP-1 monocytic leukaemia cells, TNF dual-luciferase reporter clone, PMA-differentiated to macrophage-like cells
Knock-down reagent: siRNA pool against human genes, 50 nM
Time to read-out: LPS for 4 h, given about 3 days after siRNA transfection
Treatment: bacterial LPS (TLR4 ligand), 10 ng/ml
Read-out: 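Ratio of firefly to renilla light, scaled to the plate median and expressed as a robust z-score per replicate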
Scale: TNF reporter robust z-score: higher = stronger TNF reporter response to LPS
Active means: 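Each well counts as active if its z-score is over 2.8 or under -1.5; controls are left without a call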

Silencing of SDR42E1 gave: TNF reporter robust z-score -0.88; inactive. For SDR42E1 the deposit lists TNF reporter robust z-score 0.3; inactive. With knock-down of SDR42E1, the record shows TNF reporter robust z-score 0.53; inactive. Against SDR42E1 the deposit lists TNF reporter robust z-score -0.59; inactive. Silencing of DACH2 gave: TNF reporter robust z-score -0.44; inactive. With knock-down of DACH2, the record shows TNF reporter robust z-score -0.69; inactive.

For DACH2, the values are TNF reporter robust z-score -0.85; inactive. Knock-down of DACH2 came out at: TNF reporter robust z-score -0.21; inactive. For GUCY2C the deposit lists TNF reporter robust z-score -0.28; inactive. Knock-down of GUCY2C resulted in: TNF reporter robust z-score 1.67; inactive. With knock-down of GUCY2C, the record shows TNF reporter robust z-score 0.62; inactive. GUCY2C scored TNF reporter robust z-score 0.99; inactive.

Silencing of TYROBP resulted in: TNF reporter robust z-score -0.26; inactive. For TYROBP, the entry reads TNF reporter robust z-score -0.2; inactive. TYROBP gave TNF reporter robust z-score -1.32; inactive. TYROBP scored TNF reporter robust z-score 1.18; inactive. BBS10 scored TNF reporter robust z-score -1.12; inactive. For BBS10, the values are TNF reporter robust z-score -1.39; inactive.

Depletion of BBS10 resulted in: TNF reporter robust z-score -1.15; inactive. BBS10 scored TNF reporter robust z-score -0.08; inactive. ARFRP1 gave TNF reporter robust z-score -0.1; inactive. ARFRP1 scored TNF reporter robust z-score -0.15; inactive. With knock-down of ARFRP1, the record shows TNF reporter robust z-score 0.08; inactive. Knock-down of ARFRP1 resulted in: TNF reporter robust z-score -0.22; inactive.

Against CCL24, the values are TNF reporter robust z-score -0.27; inactive. After knock-down of CCL24, the screen gave TNF reporter robust z-score 0.91; inactive. After knock-down of CCL24, the screen gave TNF reporter robust z-score 0.18; inactive. Against CCL24, the values are TNF reporter robust z-score -0.33; inactive. With knock-down of ECEL1, the screen gave TNF reporter robust z-score 0.37; inactive. Knock-down of ECEL1 gave: TNF reporter robust z-score -0.74; inactive.

With knock-down of ECEL1, the screen gave TNF reporter robust z-score -1.43; inactive. ECEL1 scored TNF reporter robust z-score 1.18; inactive.

Entries listed so far whose target name starts with B or b:
BBS10 — TNF reporter robust z-score = -1.12; outcome = inactive
BBS10 — TNF reporter robust z-score = -1.39; outcome = inactive
BBS10 — TNF reporter robust z-score = -1.15; outcome = inactive
BBS10 — TNF reporter robust z-score = -0.08; outcome = inactive
